These are yes or no findings as the source states them, for the method shown.

The target of this experiment is full-length DnaA (wtDnaA) (E. coli) (UniProt P03004). Nature of the experiment: condition: only without SOPG liposomes (aqueous phase), 0.8 uM DnaA; cross-linking; 0.8 uM ATP-DnaA with 2.4 uM BMOE in buffer AC without DTT, 1 mM ATP, aqueous phase without SOPG liposomes (0 uM), 20 min at 30 C; non-reducing SDS/PAGE (10% gel), Coomassie staining; both purified.

B1: full-length DnaA (wtDnaA) (protein, UniProt P03004 1-467)
chain: MSLSLWQQCLARLQDELPATEFSMWIRPLQAELSDNTLALYAPNRFVLDWVRDKYLNNINGLLTSFCGADAPQLRFEVGTKPVTQTPQAAVTSNVAAPAQVAQTQPQRAAPSTRSGWDNVPAPAEPTYRSNVNVKHTFDNFVEGKSNQLARAAARQVADNPGGAYNPLFLYGGTGLGKTHLLHAVGNGIMARKPNAKVVYMHSERFVQDMVKALQNNAIEEFKRYYRSVDALLIDDIQFFANKERSQEEFFHTFNALLEGNQQIILTSDRYPKEINGVEDRLKSRFGWGLTVAIEPPELETRVAILMKKADENDIRLPGEVAFFIAKRLRSNVRELEGALNRVIANANFTGRAITIDFVREALRDLLALQEKLVTIDNIQKTVAEYYKIKVADLLSKRRSRSVARPRQMAMALAKELTNHSLPEIGDAFGGRDHTTVLHACRKIEQLREESHDIKEDFSNLIRTLSS
Consider B1, for which the binding result is “no binding”.

Source of the values: PMC4721551.
